Experimental data: paper PMC11852955
Results are given in words; binding and its absence hold for the method and conditions named. Binding seen in cells or lysates may run through a third protein. Some results given as binding are weak or reduced against the parent protein; the word gives no strength.

Sequences of proteins named here, by UniProt entry; tags and fusion partners are left off.
UniProt P01101: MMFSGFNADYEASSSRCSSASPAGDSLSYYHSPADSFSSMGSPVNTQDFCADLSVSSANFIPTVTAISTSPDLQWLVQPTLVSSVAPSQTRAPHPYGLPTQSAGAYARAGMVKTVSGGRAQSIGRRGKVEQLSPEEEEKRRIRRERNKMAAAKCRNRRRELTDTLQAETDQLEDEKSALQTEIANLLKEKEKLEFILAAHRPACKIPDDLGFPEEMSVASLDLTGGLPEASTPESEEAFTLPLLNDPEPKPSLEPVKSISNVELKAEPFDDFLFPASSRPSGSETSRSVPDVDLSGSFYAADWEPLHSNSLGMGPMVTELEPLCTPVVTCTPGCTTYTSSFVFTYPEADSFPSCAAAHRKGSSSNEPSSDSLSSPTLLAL
UniProt P63216: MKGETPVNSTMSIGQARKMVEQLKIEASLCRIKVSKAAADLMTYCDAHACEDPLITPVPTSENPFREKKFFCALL

T1: JunD (mouse (endogenous in DRG)) (UniProt P15066)
T1 sequence: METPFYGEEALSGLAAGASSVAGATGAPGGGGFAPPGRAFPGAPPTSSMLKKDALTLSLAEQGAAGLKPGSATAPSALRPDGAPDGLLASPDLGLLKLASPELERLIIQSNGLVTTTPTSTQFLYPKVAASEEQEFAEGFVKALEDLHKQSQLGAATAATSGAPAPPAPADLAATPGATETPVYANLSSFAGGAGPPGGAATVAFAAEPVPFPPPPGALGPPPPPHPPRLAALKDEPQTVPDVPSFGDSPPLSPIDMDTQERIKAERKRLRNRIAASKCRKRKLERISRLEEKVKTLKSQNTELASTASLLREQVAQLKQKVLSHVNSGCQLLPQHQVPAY

T2: FosB (mouse (endogenous in DRG)) (UniProt P13346)
T2 sequence: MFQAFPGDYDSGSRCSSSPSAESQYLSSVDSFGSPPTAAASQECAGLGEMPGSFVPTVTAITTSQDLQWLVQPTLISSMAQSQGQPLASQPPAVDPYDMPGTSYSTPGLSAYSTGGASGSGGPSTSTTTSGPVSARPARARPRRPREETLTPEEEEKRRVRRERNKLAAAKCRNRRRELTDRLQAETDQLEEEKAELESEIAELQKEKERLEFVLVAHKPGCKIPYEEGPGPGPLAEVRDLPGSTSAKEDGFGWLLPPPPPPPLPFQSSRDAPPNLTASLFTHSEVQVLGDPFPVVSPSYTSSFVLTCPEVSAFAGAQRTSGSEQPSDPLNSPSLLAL

B1: FosB (protein, UniProt P13346 1-338)
chain: T2 sequence

What was measured:
Experiment in all cases: co-IP; lysates of mouse DRG (control, STZ diabetic, Ascl1/Lhx6-treated STZ groups); immunoprecipitation buffer with Tris-HCl, NaCl, MgCl2, EDTA, Triton X-100, glycerol; precleared with protein A/G PLUS-agarose; immunoprecipitated with rabbit anti-c-Fos, anti-JunD, anti-FosB, anti-FoxK1, anti-GNG3; washed with 50 mM Tris-HCl pH 7.4, 150 mM NaCl, 10 mM EDTA, 1% NP-40
[1] = molecular target: c-Fos (mouse (endogenous in DRG)) (UniProt P01101)
[2] = molecular target: T1, JunD (mouse (endogenous in DRG))
[3] = molecular target: T2, FosB (mouse (endogenous in DRG))

Molecule	binding [1]	binding [2]	binding [3]
guanine nucleotide-binding protein G[I]/G[S]/G[O] subunit gamma-3 (from UniProt P63216 1-75)	no binding	no binding	no binding
c-Fos (from UniProt P01101 1-380)	–	binds	–
B1	–	binds	–
